This is one part of the list. These are further read-outs of the screen, such as a control signal, another cell line or another target. No call is given for them. Most of these compounds were active or inconclusive in the main read-out, so they are no random draw. Words in brackets tell the shape of the fitted curve; partial curves, single points and poor fits give uncertain potencies.
Assay: qHTS Assay for Lipid Storage Modulators in Drosophila S3 Cells;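 on cell number change: cells counted by Cell Tracker Red CMTPX staining in the red channel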
Conditions: BODIPY lipid droplet fluorescence, 18-24 h; for cell number change: measured here: cell count max response, cells fed with added oleic acid
Method in brief: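 Laser-scanning cytometry quantifies lipid droplet accumulation (500–530 nm total intensity; droplet/cell object ratio) in oleic acid-fed (400 uM added) Drosophila S3 cells treated with a concentration series. 20 uM Triacsin C defined 100% inhibition.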

[1] = measured here: cell number channel AC50, cells fed with added oleic acid
[2] = measured here: lipid fluorescence (Fed channel) AC50, cells fed with added oleic acid

| Structure (SMILES) | cell number change [%] | AC50 [1] | AC50 [2] |
| --- | --- | --- | --- |
| Cc1cc(C)cc(OC(=O)CS(=O)c2ccc(C(F)(F)F)cc2[N+](=O)[O-])c1 (configuration not stated) | 15.8 | 1.46 µM [falling, partial curve] |  |
| Cc1nc2c3cnn(-c4ccc(C)c(C)c4)c3ncn2n1 | 1.15 |  |  |
| Cc1nnc(NC(=O)C2(c3ccccc3)CCOCC2)s1 | 6.74 |  | 6.51 µM [falling, single point] |
| Cc1ccc(NC(=O)CO/N=C(\N)c2nonc2N)cc1C | 7.04 |  | 9.2 µM [rising, partial curve, poor fit] |
| Cc1nc(CS(=O)(=O)c2ccccc2)cc(N2CCN(c3ccccc3F)CC2)n1 | 58.9 | 20.6 µM [rising, single point] | 29.1 µM [rising, single point] |
| COc1ccc(C(=O)CNc2ccc(C)cc2C)cc1 |  |  | 0.0058 µM [rising, full curve, poor fit] |
| COc1ccc(NS(=O)(=O)c2cc([N+](=O)[O-])ccc2N/N=C\c2c(C)[nH]c3ccccc23)cc1 | 139 | 20.6 µM [rising, partial curve] |  |
| CCCNc1ncnc2onc(C)c12 | -9.64 |  | 0.082 µM [rising, full curve, poor fit] |
| CCCOc1ccc(N2C(=O)CC(N(Cc3ccco3)C(C)=O)C2=O)cc1 (configuration not stated) | -30.4 | 29.1 µM [falling, single point] | 29.1 µM [falling, single point] |
| CCn1c(C)nc2cc(C(=O)N/N=C/c3ccc(OC)c(O)c3)ccc21 | -20 |  | 2.31 µM [rising, full curve] |
| CCOC(=O)C1CCN(C(=O)C2(NC(=O)NC3CCCCC3)CCCCC2)CC1 | -58.6 | 2.91 µM [falling, partial curve] | 3.66 µM [falling, full curve] |
| O=C(Cc1ccccc1)NCC(=O)Nc1cc(Cl)ccc1Cl | 19.8 |  | 32.6 µM [rising, single point] |
| O=C(NCc1cccc(Cl)c1)c1cc(COc2ccc3ncccc3c2)on1 | -38.7 | 29.1 µM [falling, single point] | 18.4 µM [falling, single point] |
| COc1ccc(OCC(=O)Nc2ccc3c(c2)nc2n3CCSC2)cc1 |  | 6.51 µM [rising, single point] |  |
| O=C(CCS(=O)(=O)c1cccc2nonc12)NCCc1ccccc1 | 4.87 |  | 20.6 µM [rising, partial curve] |
| Clc1ccc(-c2cc(-c3ccccc3)on2)cc1 | -0.656 |  | 9.2 µM [rising, partial curve] |
| CC1CCC(NC(=O)c2nc(Cn3ccc([N+](=O)[O-])n3)no2)CC1 (configuration not stated) | -5.71 |  | 29.1 µM [rising, partial curve] |
| C=CCNC(=O)c1cc(-c2ccncc2)nc2c(C)cc(C)cc12 | 0.926 |  | 2.82 µM [rising, partial curve] |
| CCC(OC(=O)CCc1nc2ccccc2[nH]c1=O)C(=O)c1ccccc1 (configuration not stated) | -10.3 |  |  |
| Cc1nnc(SCC2=C(C(=O)O)N3C(=O)C(NC(=O)C(C)n4nc(C(F)(F)F)cc4C)C3SC2)s1 (configuration not stated) | 29.9 |  | 29.1 µM [rising, single point] |

An excerpt of these results, with tabs.
Structure (SMILES)	cell number change [%]	AC50 [1]	AC50 [2]
CCCNc1ncnc2onc(C)c12	-9.64		0.082 µM [rising, full curve, poor fit]
O=C(CCS(=O)(=O)c1cccc2nonc12)NCCc1ccccc1	4.87		20.6 µM [rising, partial curve]
Clc1ccc(-c2cc(-c3ccccc3)on2)cc1	-0.656		9.2 µM [rising, partial curve]

Remaining list, next part

| Structure (SMILES) | cell number change [%] | AC50 [1] | AC50 [2] |
| --- | --- | --- | --- |
| CCOc1ccc(NC(=O)CSc2nnc(-c3ccccc3Cl)n2Cc2ccco2)cc1 | -10.3 |  |  |
| Cc1nc2c(sc3nc4c(cc32)COC(C)(C)C4)c(=O)n1CC(=O)NCc1ccco1 | -8.19 |  | 3.66 µM [rising, full curve, poor fit] |
| CC(Sc1nnc2c(n1)[nH]c1ccccc12)C(=O)N(C)C1CCCCC1 (configuration not stated) | 8.82 |  | 6.51 µM [falling, single point] |
| O=C(c1cccs1)N1N=C(c2ccccc2)CC1c1ccccc1O (configuration not stated) | -29.7 |  | 13 µM [falling, partial curve] |
| COC(=O)c1cn(C(=O)c2ccc(C)c(C)c2)c2ccccc12 | -6.26 | 0.461 µM [rising, full curve, poor fit] |  |
| COC(=O)c1cc(C(=O)Nc2cc(C)on2)cc([N+](=O)[O-])c1 | 13.8 |  |  |
| O=C1NCC(NC(=O)C(F)(F)F)c2cc3c(cc21)OCO3 (configuration not stated) | 8.29 | 6.51 µM [rising, single point] |  |
| O=C(CSc1nnc(CNC(=O)c2cccs2)o1)Nc1ccc(F)cc1F | 12.5 | 6.51 µM [rising, single point] |  |
| COc1cc(/C=C/C(=O)c2ccc([N+](=O)[O-])o2)ccc1O |  | 2.06 µM [falling, partial curve] | 2.06 µM [falling, full curve] |
| COc1ccc(CCNC(=O)c2cc(S(=O)(=O)N(C)C)ccc2N2CCCC2)cc1OC | -14.9 |  | 0.103 µM [falling, full curve, poor fit] |
| CCC(C)NC(=O)Cc1cn(C)c2ccccc12 (configuration not stated) | -11.2 |  |  |
| COC(=O)N/N=C/c1ccc(-c2ccccc2Cl)o1 | 19.2 |  | 0.0231 µM [rising, full curve] |
| CCCCC(=O)Nc1cc([N+](=O)[O-])ccc1Cl | -11.6 |  | 29.1 µM [rising, single point] |
| CCOc1ccc(CCNC(=O)COC(=O)c2cccc(S(=O)(=O)N3CCCC3)c2)cc1OCC | -67 | 29.1 µM [falling, single point] | 29.1 µM [falling, single point] |
| O=C(CN1C(=O)C2C3C=CC(C3)C2C1=O)Nc1nc(-c2ccccn2)cs1 (configuration not stated) |  | 0.82 µM [rising, full curve, poor fit] | 0.231 µM [rising, full curve, poor fit] |
| O=C1C(Nc2ccc(O)cc2)=C/C(=N/S(=O)(=O)c2cccs2)c2ccccc21 | -45.4 |  | 3.26 µM [falling, partial curve] |
| O=CN1CCN(C(C(=O)NC2CCCC2)c2cc3c(cc2[N+](=O)[O-])OCO3)CC1 (configuration not stated) |  | 6.51 µM [rising, partial curve] | 6.51 µM [rising, partial curve] |
| O=S(=O)(Cc1ccccc1)NCC1CCCO1 (configuration not stated) | -7.94 |  | 6.51 µM [rising, partial curve] |
| O=C(c1c[nH]c(C(=O)C(Cl)(Cl)Cl)c1)c1c(F)cccc1F | -54.3 | 8.2 µM [falling, partial curve] | 7.31 µM [falling, partial curve] |
| OC(COc1ccccc1)CN1CCC(Cc2ccccc2)CC1 (configuration not stated) | -10.6 |  |  |

| Structure (SMILES) | cell number change [%] | AC50 [1] | AC50 [2] |
| --- | --- | --- | --- |
| CNc1cc([N+](=O)[O-])ccc1N/C=C/C(=O)c1ccc2c(c1)OCO2 | -17.3 | 0.00411 µM [rising, full curve, poor fit] |  |
| COc1ccc(S(N)(=O)=O)cc1C(=O)N(C)CC(=O)Nc1ccc(N2CCOCC2)cc1 | -2.08 |  |  |
| COC(=O)CN1C(=O)C(O)(CC(=O)c2ccc(C)cc2)c2ccccc21 (configuration not stated) | -10.4 |  | 0.517 µM [falling, full curve] |
| CCn1c(N2CCN(S(=O)(=O)c3ccc(F)cc3)CC2)nc2ccccc21 | -14 |  | 32.6 µM [falling, single point] |
| CCOC(=O)C1=C(C)NC(=O)NC1/C=C\c1ccccc1 (configuration not stated) | 9.82 |  | 6.51 µM [rising, single point] |
| Cc1ccc2c(CN3CCCCC3)cc(=O)oc2c1 | -2.48 |  | 25.9 µM [rising, partial curve, poor fit] |
| CN1C(=O)[C@@H]2[C@H](C1=O)[C@@H]1C(=O)Nc3ccccc3C(=O)N1[C@@H]2c1cccc(Br)c1 | 16 |  | 23.1 µM [rising, single point] |
| CCOC(=O)/C=C1\SCC(=O)N1CC(=O)NC(C)c1ccc(F)cc1 (configuration not stated) | 15.7 |  | 16.4 µM [rising, partial curve, poor fit] |
| O=C(NC1CCCCC1)c1ccccc1NC(=O)C1CC(=O)N(c2ccccc2)C1 (configuration not stated) | -28.2 |  | 29.1 µM [falling, single point] |
| CCOC(=O)c1cnc2ccc(C)cc2c1N(C)Cc1ccccc1 | -53.1 | 20.6 µM [falling, single point] | 1.03 µM [falling, full curve] |
| COc1ccc(NC(=S)NCc2ccco2)cc1 | -2.45 |  |  |
| CCOc1ccc(N2CC(C(=O)N3CCc4ccccc4C3)CC2=O)cc1 (configuration not stated) | 7.57 |  | 29.1 µM [falling, single point] |
| Cn1c(-c2ccccc2)cnc1NCc1ccc(-c2ccccc2)cc1 | 12.3 |  |  |
| CC(=O)c1sc(NCc2ccccc2)nc1C | 12.5 |  | 29.1 µM [rising, single point] |
| Cc1ccc(NC(=O)COC(=O)CCc2ccc(S(=O)(=O)N3CCOCC3)cc2)cc1F | -38.8 |  |  |
| NC(=O)C1(N2CCCCC2)CCN(C2CC(=O)N(CCc3ccccc3)C2=O)CC1 (configuration not stated) | 1.81 | 0.164 µM [falling, full curve, poor fit] | 1.03 µM [falling, full curve] |
| COc1ccc(CN2CCN(C(=O)C3CCC(CNS(=O)(=O)c4ccccc4)CC3)CC2)c(OC)c1OC (configuration not stated) | 20.6 |  | 18.4 µM [falling, single point] |
| COc1ccc2nc(Nc3nc4cc5c(cc4s3)OCO5)sc2c1 |  |  | 3.26 µM [rising, single point] |
| Cc1noc(C)c1COc1ccc(C(=O)OCC(=O)Nc2cccc(S(=O)(=O)N3CCOCC3)c2)cc1 | -31.3 | 0.0058 µM [falling, full curve, poor fit] | 0.82 µM [falling, full curve, poor fit] |
| C/C(=N\NC(=O)c1ccc(CN(C)S(=O)(=O)c2ccc(C)cc2)cc1)c1ccc(OC(F)F)cc1 | -37.2 | 16.4 µM [falling, single point] | 8.2 µM [falling, partial curve] |
